Further values from the same series stand in other lists.
Test system: wildtype (WT) human fibroblast cell lines
Assay: Transcriptome-wide splicing by RNA sequencing (RNASeq), exon triplet PSI change;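 for Effect: six WT fibroblast lines treated seven days versus DMSO vehicle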;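 for T-PSI: T-PSI is average treated PSI after seven days of treatment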
Format: cell-based
Set-up: key to Effect: Exclusion; Inclusion; Unchanged
Description: FIG. 2A provides a representation of an exon triplet. Exon U is upstream of Exon X, which is upstream of Exon D. R1, R2 and R3 represent RNA sequencing (RNASeq) reads spanning the regions between two adjacent exons. UI1, I1X, XI2 and I2D are four regions flanking the four splice sites of the exon-triplet. Each flanking region consists of 25 exonic base pairs and 75 intronic base pairs.
FIG. 2B provides a volcano plot showing the ψ (PSI: Percent Spliced-In) changes in splicing after treatment with Compound (I). Each dot represents one of the 161,097 expressed exon triplets in human fibroblasts. The x axis represents the ψ changes after treatment and the y axis represents the False Discovery Rate (FDR) (log 10 transformed). […] The horizontal dashed line indicates an FDR of 0.1. The dots on the right side of the right vertical dashed line and above the horizontal dashed line represent the exon-triplets with an increase for Exon X inclusion (Δψ≥0.1 and FDR<0.1) while the dots on left side of the left vertical dashed line and above the horizontal dashed line represent an increase for Exon X exclusion (Δψ≤−0.1 and FDR<0.1). Black dots in-between the two vertical dashed lines represent exon-triplets unchanged from the treatment.
In some aspects, analysis is performed on data derived from the assay to measure the magnitude of splicing to determine the amount of exons spliced into an mRNA transcript that is produced in the presence of Compound (I) relative to the amount in the absence of Compound (I) or presence of a negative control. In a preferred aspect, the method utilized is calculation of change in Percent Spliced In (ΔPSI). […] The ΔPSI value is derived from the formula: […]
The values for “a” and “b” represent the number of reads supporting the probability for potential inclusion or exclusion of an exon in an RNA transcript. The “a” value is derived from the number of reads within an exon triplet covering, in 5′ to 3′ order: the last few bases (>1 nucleotide) of an upstream exon operably linked to the first few bases (>1 nucleotide) of a middle exon. The “b” value is derived from the number of reads within an exon triplet covering, in 5′ to 3′ order: the last few bases (>1 nucleotide) of the middle exon operably linked to the first few bases (>1 nucleotide) of a downstream exon. The number of reads will indicate whether the splice junction of a middle exon has been identified as potentially having a CNN Motif(s) by the CNN Model described herein, wherein the inclusion or exclusion of the middle exon may be modulated in the presence of Compound (I) to produce one or more mature RNA isoforms from the gene transcript. The value for “c” represents the number of reads supporting the exclusion of the middle exon.
The effect on splicing modulation and corresponding splice differences toward exon inclusion or exclusion was determined by counting the RNASeq reads covering two splice junctions of exon triplets (three consecutive exons: Exon U, Exon X, Exon D) and the corresponding intervening introns, then comparing the change in Percent Spliced In (ΔPSI or Δψ) of the middle exon (Exon X) after treatment (as shown in FIG. 2A)^52,53. 934 exon triplets were identified showing differential middle exon inclusion or exclusion in response to Compound (I) treatment. Of these, 254 were exon inclusion events (Δψ≥0.1 and FDR<0.1) and 680 were exon exclusion events (Δψ≤−0.1 and FDR<0.1) (as shown in FIG. 2B). […] The splicing results were evaluated by RT-PCR in independent replicate experiments, confirming all the calculated Δψ values. […]

[1] = CSNK1A1 Exon 148897357-148897440
[2] = CYB561D2 Exon 50389440-50389477
[3] = CYP20A1 Exon 204110569-204110618
[4] = CYP20A1 Exon 204143296-204143411
[5] = DCAF17 Exon 172330376-172330485
[6] = DCTD Exon 183837572-183837692, Intron2 183837693-183838440
[7] = DCTD Exon 183837572-183837692, Intron2 183837693-183838463
[8] = DCUN1D5 Exon 102953477-102953568
[9] = DLGAP1-AS1 Exon 3596577-3596673

Clc1nc(NCc2ccncc2)c2cc[nH]c2n1 [Compound (I), 2-chloro-N-(pyridin-4-ylmethyl)-7H-pyrrolo[2,3-d]pyrimidin-4-amine]
Effect (CRAT Exon 131871458-131871556): Exc | T-PSI (CRAT Exon 131871458-131871556): 0.424 | ΔPSI (CRAT Exon 131871458-131871556): −0.150 | Effect (CREBBP Exon 3827614-3827658): Inc | T-PSI (CREBBP Exon 3827614-3827658): 0.969 | ΔPSI (CREBBP Exon 3827614-3827658): 0.133 | Effect (CRLS1 Exon 5996007-5996136): Exc | T-PSI (CRLS1 Exon 5996007-5996136): 0.889 | ΔPSI (CRLS1 Exon 5996007-5996136): −0.103 | Effect (CRNDE Exon 54954210-54954250): Exc | T-PSI (CRNDE Exon 54954210-54954250): 0.867 | ΔPSI (CRNDE Exon 54954210-54954250): −0.106 | Effect (CRYZ Exon 75172787-75172888): Exc | T-PSI (CRYZ Exon 75172787-75172888): 0.322 | ΔPSI (CRYZ Exon 75172787-75172888): −0.516 | Effect (CRYZ Exon 75196066-75196104): Exc | T-PSI (CRYZ Exon 75196066-75196104): 0.091 | ΔPSI (CRYZ Exon 75196066-75196104): −0.105 | Effect (CSAD Exon 53554911-53554975): Exc | T-PSI (CSAD Exon 53554911-53554975): 0.224 | ΔPSI (CSAD Exon 53554911-53554975): −0.174 | Effect (CSDE1 Exon 115280092-115280184): Unc | T-PSI (CSDE1 Exon 115280092-115280184): 0.096 | ΔPSI (CSDE1 Exon 115280092-115280184): −0.008 | Effect [1]: Unc | T-PSI [1]: 0.116 | ΔPSI [1]: 0.003 | Effect (CTDSPL Exon 37998602-37998634): Exc | T-PSI (CTDSPL Exon 37998602-37998634): 0.336 | ΔPSI (CTDSPL Exon 37998602-37998634): −0.261 | Effect (CTIF Exon 46066129-46066202): Unc | T-PSI (CTIF Exon 46066129-46066202): 0.241 | ΔPSI (CTIF Exon 46066129-46066202): 0.006 | Effect (CTSB Exon 11721885-11721972): Unc | T-PSI (CTSB Exon 11721885-11721972): 0.219 | ΔPSI (CTSB Exon 11721885-11721972): −0.001 | Effect (CUTC Exon 101510126-101510153): Exc | T-PSI (CUTC Exon 101510126-101510153): 0.240 | ΔPSI (CUTC Exon 101510126-101510153): −0.269 | Effect (CWC25 Exon 36966529-36966653): Exc | T-PSI (CWC25 Exon 36966529-36966653): 0.024 | ΔPSI (CWC25 Exon 36966529-36966653): −0.157 | Effect [2]: Exc | T-PSI [2]: 0.823 | ΔPSI [2]: −0.136 | Effect (CYLD Exon 50778641-50778777): Inc | T-PSI (CYLD Exon 50778641-50778777): 0.856 | ΔPSI (CYLD Exon 50778641-50778777): 0.415 | Effect [3]: Exc | T-PSI [3]: 0.410 | ΔPSI [3]: −0.290 | Effect [4]: Exc | T-PSI [4]: 0.830 | ΔPSI [4]: −0.145 | Effect (DAB2 Exon 39417291-39417386): Inc | T-PSI (DAB2 Exon 39417291-39417386): 0.334 | ΔPSI (DAB2 Exon 39417291-39417386): 0.196 | Effect (DBT Exon 100672001-100672192): Exc | T-PSI (DBT Exon 100672001-100672192): 0.880 | ΔPSI (DBT Exon 100672001-100672192): −0.103 | Effect (DCAF8 Exon 160213750-160213824): Unc | T-PSI (DCAF8 Exon 160213750-160213824): 0.899 | ΔPSI (DCAF8 Exon 160213750-160213824): −0.009 | Effect (DCAF8 Exon 160231075-160231148): Inc | T-PSI (DCAF8 Exon 160231075-160231148): 0.864 | ΔPSI (DCAF8 Exon 160231075-160231148): 0.102 | Effect (DCAF10 Exon 37842086-37842283): Exc | T-PSI (DCAF10 Exon 37842086-37842283): 0.533 | ΔPSI (DCAF10 Exon 37842086-37842283): −0.128 | Effect (DCAF11 Exon 24586877-24586941): Exc | T-PSI (DCAF11 Exon 24586877-24586941): 0.828 | ΔPSI (DCAF11 Exon 24586877-24586941): −0.154 | Effect [5]: Exc | T-PSI [5]: 0.826 | ΔPSI [5]: −0.135 | Effect (DCP1A Exon 53338207-53338320): Inc | T-PSI (DCP1A Exon 53338207-53338320): 0.990 | ΔPSI (DCP1A Exon 53338207-53338320): 0.100 | Effect [6]: Unc | T-PSI [6]: 0.122 | ΔPSI [6]: −0.004 | Effect [7]: Unc | T-PSI [7]: 0.235 | ΔPSI [7]: 0.003 | Effect [8]: Inc | T-PSI [8]: 0.993 | ΔPSI [8]: 0.137 | Effect (DDB2 Exon 47256308-47256485): Exc | T-PSI (DDB2 Exon 47256308-47256485): 0.772 | ΔPSI (DDB2 Exon 47256308-47256485): −0.151 | Effect (DGKA Exon 56332295-56332344): Exc | T-PSI (DGKA Exon 56332295-56332344): 0.873 | ΔPSI (DGKA Exon 56332295-56332344): −0.126 | Effect (DGUOK Exon 74166037-74166149): Unc | T-PSI (DGUOK Exon 74166037-74166149): 0.287 | ΔPSI (DGUOK Exon 74166037-74166149): 0.002 | Effect (DHRSX Exon 2310395-2310515): Exc | T-PSI (DHRSX Exon 2310395-2310515): 0.024 | ΔPSI (DHRSX Exon 2310395-2310515): −0.103 | Effect (DIMT1 Exon 61687998-61688061): Exc | T-PSI (DIMT1 Exon 61687998-61688061): 0.851 | ΔPSI (DIMT1 Exon 61687998-61688061): −0.140 | Effect (DIS3 Exon 73354984-73355141): Inc | T-PSI (DIS3 Exon 73354984-73355141): 0.720 | ΔPSI (DIS3 Exon 73354984-73355141): 0.183 | Effect (DIS3 Exon 73355427-73355494): Exc | T-PSI (DIS3 Exon 73355427-73355494): 0.170 | ΔPSI (DIS3 Exon 73355427-73355494): −0.168 | Effect (DLG1 Exon 196888511-196888609): Exc | T-PSI (DLG1 Exon 196888511-196888609): 0.500 | ΔPSI (DLG1 Exon 196888511-196888609): −0.113 | Effect [9]: Unc | T-PSI [9]: 0.834 | ΔPSI [9]: 0.002 | Effect (DMD Exon 31196049-31196087): Exc | T-PSI (DMD Exon 31196049-31196087): 0.086
